Experimental data: patent US12357657B2, “Silver-/gold-compounds and methods thereof” (priority 2019, dated 2025)
Some entries share one result that the patent states for a list of compounds. At least one compound was matched to its structure with a doubt left.

Assays:
MCR-producing E. coli = assay: Time kill assay; format: cell-based; conditions: combination with 2 μg mL^−1 colistin; 10 μg mL^−1 AgNO3 or 6 μg mL^−1 auranofin; endpoint 24 hours
[1] = tested on: K. pneumoniae 9607 (MCR-1+); assay: Murine infection model, bacterial loads in liver and spleen; format: in vivo, mice; conditions: combination with colistin 2 mg kg^−1, single i.p. dose, 48 hrs
Protocol: For local infection experiment, an overnight culture of K. pneumoniae 9607 (MCR-1^+) was performed 1:250 dilution in LB broth and re-grew to about OD600 0.5 at 37° C., 250 rpm. Bacterial pellets were collected and washed by PBS buffer three times for further use. Mice were infected intraperitoneally (i.p.) with a dose of 2×10^6 CFU of bacteria in PBS. […] All the mice were scarified at 48 hrs following systemic infection, and bacterial loads in livers and spleens were examined by agar plating. […] Body weights and mice survival were monitored till endpoint of the experiment.

Which “fold lowering of bacterial density versus single components” value (MCR-producing E. coli) does the source give for CC(=O)OC[C@H]1O[C@@H]([S-])[C@H](OC(C)=O)[C@@H](OC(C)=O)[C@@H]1OC(C)=O.CCP(CC)CC.[Au+] [auranofin] here?
The value was “more than 10000 folds”.

And the “fold reduction in CFUs in liver and spleen versus monotherapy” value [1]?
Its value is > 20 fold.
